Results published in ChEMBL document CHEMBL1124123, “Graphics computer-aided receptor mapping as a predictive tool for drug design: development of potent, selective, and stereospecific ligands for the 5-HT1A receptor” (J Med Chem, 1988).

Target: T1, 5-hydroxytryptamine receptor 1A (Rattus norvegicus, UniProt P19327)
T1 sequence (P19327 whole entry): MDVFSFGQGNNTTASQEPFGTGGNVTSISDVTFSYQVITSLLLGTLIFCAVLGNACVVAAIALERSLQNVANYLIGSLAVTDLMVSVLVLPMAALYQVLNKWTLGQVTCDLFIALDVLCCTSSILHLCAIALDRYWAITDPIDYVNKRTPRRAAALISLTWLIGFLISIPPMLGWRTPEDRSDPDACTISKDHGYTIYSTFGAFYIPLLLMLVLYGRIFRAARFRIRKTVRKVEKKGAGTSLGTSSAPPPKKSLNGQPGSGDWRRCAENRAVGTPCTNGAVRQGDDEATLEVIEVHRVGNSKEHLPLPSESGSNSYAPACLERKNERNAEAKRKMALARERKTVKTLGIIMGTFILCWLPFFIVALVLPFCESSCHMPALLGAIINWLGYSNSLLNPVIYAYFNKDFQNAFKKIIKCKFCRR
Assay: Binding affinity towards 5-hydroxytryptamine 1A receptor in rat frontal cortex using [3H]8-OH-DPAT as a radioligand
Assay type: tissue-based
Outline: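 Radioligand binding on rat brain membranes, labelling the 5-HT1A site with [3H]-8-OH-DPAT as the selective ligand.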

IC50: 170 nM
SMILES: CC(C)NC[C@@H](O)COc1cccc2ccccc12 [DEXPROPRANOLOL]
